PubChem BioAssay AID504834 (National Center for Advancing Translational Sciences (NCATS), 2011)
Hit rate of the full screen: of about 320,000 compounds, about 22,000 (6.9%) were called active. The inconclusive results got no clear call from the source; some entries with a clear call stand among them for comparison. Calls come from the whole dose curve; as a rule, active = well fitted inhibition curve with a large enough effect; inconclusive = small, poorly fitted or top-dose-only effect, or another doubt; inactive = no such curve, though single readings can be large or run the other way. Potencies beside an inconclusive call are fits to weak or partial responses and may not hold up.

Assay: Primary qHTS for delayed death inhibitors of the malarial parasite plastid, 96 hour incubation
Details: P. falciparum luciferase reporter growth; series mostly up to 28.7 µM
Procedure, shortened: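 Parasite growth measured via integrated firefly luciferase reporter in P. falciparum. Infected erythrocytes at 2% hematocrit, 0.05% parasitemia final were treated 96 hours at 37 C under 5% CO2, and luminescence was read.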
Potency is the fitted concentration of half-maximal effect.

SMILES | Potency
O=C(c1cccc(F)c1)N1CCN(C(=O)c2nn3cccnc3c2Cl)CC1 | inconclusive: 16.5 µM [inhibitor, single point]
Cn1nnnc1SCC(=O)Nc1ccc(Cl)cc1Cl | inconclusive: 9.28 µM [inhibitor, partial curve, poor fit]
CCOC(=O)CC1C(=O)NCCN1C(=O)COc1ccc(C(C)(C)C)cc1 (stereo not drawn) | inactive
O=C1/C(=C/c2ccco2)N=C(N2CCCCC2)N1c1ccccc1 | inactive
COc1ccc2c(c1)c(=O)oc1cc(OC(C(=O)O)c3ccccc3)ccc12 (stereo not drawn) | inactive
O=C(OCC(=O)N1CCCC1)c1ccc(NS(=O)(=O)c2cccs2)cc1O | inactive
CCCCCC(=O)NC(=S)NC1C2CC3CC(C2)CC1C3 (stereo not drawn) | active: 3.7 µM
CCOc1ccc(CCNC(=O)CSC(=S)N2CCCC2)cc1OCC | inconclusive: 16.5 µM [inhibitor, partial curve, poor fit]
Cn1nccc1C(=O)N1CCCC(N2CCN(Cc3ccc4c(c3)OCO4)CC2)C1 (stereo not drawn) | inactive
CCc1nc(N2CCN(c3nc(C)cc(C)n3)CC2)c2oc3ccccc3c2n1 | inconclusive: 18.5 µM [inhibitor, single point]
CCOc1ccccc1C1C(C(=O)OC)=C(N)OC2=C1C(=O)CCC2 (stereo not drawn) | inconclusive: 9.28 µM [inhibitor, partial curve, poor fit]
Cc1sc(N)c(C(=O)c2ccccc2)c1C | inconclusive: 18.5 µM [inhibitor, single point]
O=C(CC(n1cncn1)C(Cl)(Cl)Cl)c1ccc([N+](=O)[O-])cc1 (stereo not drawn) | inconclusive: 18.5 µM [inhibitor, single point]
O=[N+]([O-])c1cccnc1Oc1ccc(C2SCCS2)cc1 | active: 10.4 µM
Cc1ccc(-n2nc(-c3cccs3)cc2C(=O)NCC2CCCO2)c(C)c1 (stereo not drawn) | inconclusive: 18.5 µM [inhibitor, single point]
O=C(COc1ccccc1)NCC(=O)N/N=C/c1cc(Br)ccc1OCc1ccccc1 | inconclusive: 0.0026 µM [inhibitor, full curve, poor fit]
CCC(=O)Nc1c(C#N)c2nc3ccccc3nc2n1-c1ccccc1C | inconclusive: 1.47 µM [inhibitor, full curve]
CC1Cc2nc(SCC(=O)N3CCCc4ccccc43)n(C)c(=O)c2S1 (stereo not drawn) | inconclusive: 9.28 µM [inhibitor, single point]
CC1(C)CN(c2ccc(F)cc2)C1=O | inactive
Nc1nc(O)c(Sc2ccccc2[N+](=O)[O-])c(=O)[nH]1 | inactive
N=c1c(S(=O)(=O)c2ccc(Cl)cc2)cc2c(=O)n3ccccc3nc2n1CC1CCCO1 (stereo not drawn) | inconclusive: 16.5 µM [inhibitor, single point]
Cc1ccc(C)c(NC(=O)N2CCc3ccccc3C2)c1 | inconclusive: 20.8 µM [inhibitor, single point]
C=C(C)CSc1nc2ccccc2c(=O)n1-c1c(C)n(C)n(-c2ccccc2)c1=O | inconclusive: 10.4 µM [inhibitor, partial curve, poor fit]

SMILES | Potency
COc1cc(Br)cc(C=Nc2cccc(C(F)(F)F)c2)c1O | inconclusive: 10.4 µM [inhibitor, single point]
CC(C)NC(=O)c1onc(CSc2ccc(F)cc2)c1C(=O)NC(C)C | active: 9.28 µM
O=C(c1ccccc1Br)N(Cc1ccccc1)c1ccccc1 | inactive
CNC(=O)[C@H]1O[C@@H](n2cnc3c(NCc4cccc(I)c4)nc(Cl)nc32)[C@H](O)[C@@H]1O | inconclusive: 13.1 µM [inhibitor, single point]
Clc1ccc(OCCn2cnc(Cl)c2Cl)cc1 | inconclusive: 2.08 µM [inhibitor, partial curve, poor fit]
CCOC(=O)c1[nH]c(CSc2nnnn2-c2ccccc2C)c(C(=O)OCC)c1C | inconclusive: 2.33 µM [inhibitor, partial curve, poor fit]
CCSc1nnc(NC(=O)CSc2nncc(=O)n2N)s1 | inconclusive: 18.5 µM [inhibitor, single point]
CCOC(=O)C1CCN(C2=C(NS(=O)(=O)c3ccc(Cl)cc3)C(=O)c3ccccc3C2=O)CC1 | inconclusive: 2.94 µM [inhibitor, full curve]
CCC1CCCCN1Cc1nc2c(c(=O)n(C)c(=O)n2C)n1CCCc1ccccc1 (stereo not drawn) | inconclusive: 13.1 µM [inhibitor, partial curve]
COc1ccc(NC(=O)CN2CCN(c3nc(-c4ccc(F)cc4)cs3)CC2)c(OC)c1 | inactive
O=C(c1c[nH]c(C(=O)C(Cl)(Cl)Cl)c1)c1ccc(F)cc1F | inconclusive: 13.1 µM [inhibitor, single point]
c1csc(C2Nc3ccccc3-c3nc4ccccc4n32)c1 (stereo not drawn) | inconclusive: 14.7 µM [inhibitor, single point]
Cn1c(=O)oc2cc(NC(=O)CCl)ccc21 | active: 6.57 µM
Cc1ccccc1CC1(CO)CCCN(C(=O)CCN2CCCO2)C1 (stereo not drawn) | active: 2.62 µM
O=C(Nc1ccc(F)cc1)c1ccc2ncsc2c1 | inactive
CCNC(=O)CC1C(=O)N(c2ccc(F)cc2)C(=S)N1CCc1ccncc1 (stereo not drawn) | inconclusive: 2.62 µM [inhibitor, full curve, poor fit]
COc1ccccc1NC(=O)CCc1nnc2ccc(NCc3ccco3)nn12 | inconclusive: 18.5 µM [inhibitor, partial curve, poor fit]
CC1CCN(C(=O)C(Cc2ccccc2)NS(=O)(=O)c2ccc3c(c2)oc(=O)n3C)CC1 (stereo not drawn) | inconclusive: 0.37 µM [inhibitor, partial curve, poor fit]
CC1(C)Cc2c(ccc3ccccc23)C(c2cc3ccccc3oc2=O)=N1 | active: 10.4 µM
CC1(c2ccccc2)CC(c2ccccc2)=Nc2nonc2N1 (stereo not drawn) | inconclusive: 4.15 µM [inhibitor, single point]
C/C(=N\NC(=S)NC1CCCCC1)c1cccs1 | inconclusive: 0.329 µM [inhibitor, full curve, poor fit]
Cc1ccc2cc(C(c3nnnn3C3CCCC3)N(Cc3ccccc3)Cc3ccco3)c(=O)[nH]c2c1 (stereo not drawn) | inconclusive: 18.5 µM [inhibitor, single point]
CC(=O)Nc1ccc(S(=O)(=O)N(Cc2ccccc2)c2ccccc2)cc1 | inconclusive: 18.5 µM [inhibitor, single point]

Structural class, the compounds so far containing an aryl methoxy group (4)
SMILES | Potency
COc1ccc2c(c1)c(=O)oc1cc(OC(C(=O)O)c3ccccc3)ccc12 (stereo not drawn) | inactive
COc1cc(Br)cc(C=Nc2cccc(C(F)(F)F)c2)c1O | inconclusive: 10.4 µM [inhibitor, single point]
COc1ccc(NC(=O)CN2CCN(c3nc(-c4ccc(F)cc4)cs3)CC2)c(OC)c1 | inactive
COc1ccccc1NC(=O)CCc1nnc2ccc(NCc3ccco3)nn12 | inconclusive: 18.5 µM [inhibitor, partial curve, poor fit]

Later entries.

SMILES | Potency
COc1cc2c(cc1OC)C(=O)CC(C)S2 (stereo not drawn) | inactive
Cc1ccc(N/N=C/c2ccncc2)cc1 | inconclusive: 8.28 µM [inhibitor, partial curve]
CC(C)c1ccc2[nH]c(O)c(N=NC(=S)NCCc3ccccc3)c2c1 | active: 9.28 µM
O=C(Nc1ccc2nc3n(c(=O)c2c1)CCCC3)c1cc([N+](=O)[O-])ccc1F | inconclusive: 0.738 µM [inhibitor, partial curve, poor fit]
COC(=O)C1=C(c2ccc(-c3ccccc3)c(F)c2)C[C@@H]2CC[C@H]1N2C(=O)NC1Cc2ccccc2C1 | inconclusive: 10.4 µM [inhibitor, partial curve]
COC(CNC(=O)c1ccc2c(c1)ncn2-c1cc(C)cc(C)c1)OC | inconclusive: 5.86 µM [inhibitor, partial curve]
O=C(NCCC1CCCCN1S(=O)(=O)c1ccccc1)C(=O)NCc1ccccn1 (stereo not drawn) | inconclusive: 18.5 µM [inhibitor, single point]
CN(c1ccccc1C(=O)Nc1ccc(F)c(Cl)c1)S(C)(=O)=O | inconclusive: 18.5 µM [inhibitor, single point]
CN1CCN(Cc2c(O)ccc3c(-c4ccccc4)cc(=O)oc23)CC1 | inconclusive: 10.4 µM [inhibitor, partial curve, poor fit]
CCCCN(C)C(=O)c1ccc2c(c1)S(=O)(=O)c1ccccc1C2=O | inconclusive: 18.5 µM [inhibitor, single point]
CCOC(=O)N1CCN(C(=O)c2ccc(C)c(S(=O)(=O)Nc3ccccc3)c2)CC1 | inconclusive: 0.0415 µM [inhibitor, full curve, poor fit]
COc1ccc(Br)cc1/C=c1\sc2nc(-c3ccco3)nn2c1=O | inconclusive: 8.28 µM [inhibitor, single point]
O=C(NCc1ccco1)c1ccc(N2CCOCC2)c([N+](=O)[O-])c1 | inconclusive: 18.5 µM [inhibitor, single point]
O=[N+]([O-])c1ccc(N2CCN(S(=O)(=O)c3ccccc3)CC2)cc1NCCN1CCOCC1 | active: 9.28 µM
CCCN(CC(=O)Nc1ccccc1OC)C(=O)CCCN1C(=O)c2ccccc2C1=O | inactive
Cc1ccc(-c2csc(NCCn3c(C(F)(F)F)nc4ccccc43)n2)cc1 | inconclusive: 11.7 µM [inhibitor, partial curve]
CC(C)C(CO)N1CCN(Cc2ccccc2)CCC1=O (stereo not drawn) | inconclusive: 10.4 µM [inhibitor, single point]
CN(CCC1CCCCO1)C(=O)CCc1nnc(CCc2ccccc2)o1 (stereo not drawn) | inactive
OCc1ccccc1O | inconclusive: 1.2 µM [inhibitor, full curve, poor fit]
COc1ccccc1N1CCN(CC(=O)c2c(C)[nH]c3cc(C)ccc23)CC1 | inactive
O=C(Nc1cc(Cl)ccc1-n1cncn1)c1cc(F)c(F)c(F)c1F | inactive
CC(=O)c1sc(NC(=O)C2CCN(c3ncnc4sc(C)c(C)c34)CC2)nc1-c1ccccc1 | inconclusive: 9.28 µM [inhibitor, single point]
